In paper PMC3628344:
These are yes or no findings as the source states them, for the method shown. In cells and extracts the contact can be indirect. Some entries that bind do so weakly or less than the wild type. For part of these data: Sequences can lack the tags named with a protein.

B1: PTPN14 (endogenous, SF268 cells) (protein, UniProt Q15678 1-1187)
chain: MPFGLKLRRTRRYNVLSKNCFVTRIRLLDSNVIECTLSVESTGQECLEAVAQRLELRETHYFGLWFLSKSQQARWVELEKPLKKHLDKFANEPLLFFGVMFYVPNVSWLQQEATRYQYYLQVKKDVLEGRLRCTLDQVIRLAGLAVQADFGDYNQFDSQDFLREYVLFPMDLALEEAVLEELTQKVAQEHKAHSGILPAEAELMYINEVERLDGFGQEIFPVKDNHGNCVHLGIFFMGIFVRNRIGRQAVIYRWNDMGNITHNKSTILVELINKEETALFHTDDIENAKYISRLFATRHKFYKQNKICTEQSNSPPPIRRQPTWSRSSLPRQQPYILPPVHVQCGEHYSETHTSQDSIFHGNEEALYCNSHNSLDLNYLNGTVTNGSVCSVHSVNSLNCSQSFIQASPVSSNLSIPGSDIMRADYIPSHRHSAIIVPSYRPTPDYETVMRQMKRGILHTDSQSQSLRNLNIINTHAYNQPEDLVYSQPEMRERHPYTVPYGPQGVYSNKLVSPSDQRNPKNNVVPSKPGASAISHTVSTPELANMQLQGSHNYSTAHMLKNYLFRPPPPYPRPRPATSTPDLASHRHKYVSGSSPDLVTRKVQLSVKTFQEDSSPVVHQSLQEVSEPLTATKHHGTVNKRHSLEVMNSMVRGMEAMTLKSLHLPMARRNTLREQGPPEEGSGSHEVPQLPQYHHKKTFSDATMLIHSSESEEEEEEAPESVPQIPMLREKMEYSAQLQAALARIPNKPPPEYPGPRKSVSNGALRQDQASLPPAMARARVLRHGPAKAISMSRTDPPAVNGASLGPSISEPDLTSVKERVKKEPVKERPVSEMFSLEDSIIEREMMIRNLEKQKMAGLEAQKRPLMLAALNGLSVARVSGREENRVDATRVPMDERFRTLKKKLEEGMVFTEYEQIPKKKANGIFSTAALPENAERSRIREVVPYEENRVELIPTKENNTGYINASHIKVVVGGAEWHYIATQGPLPHTCHDFWQMVWEQGVNVIAMVTAEEEGGRTKSHRYWPKLGSKHSSATYGKFKVTTKFRTDSVCYATTGLKVKHLLSGQERTVWHLQYTDWPDHGCPEDVQGFLSYLEEIQSVRRHTNSMLEGTKNRHPPIVVHCSAGVGRTGVLILSELMIYCLEHNEKVEVPMMLRLLREQRMFMIQTIAQYKFVYQVLIQFLQNSRLI
B2: GST-tagged wild type PTPN14 (protein, UniProt Q15678 1-1187)
chain: B1 chain

Legend:
[1] = target: YAP (endogenous, SF268 cells) (human (endogenous in SF268)) (UniProt P46937); assay: co-IP; IP of endogenous YAP from SF268 cell lysates (RIPA buffer, 4°C), blot for endogenous PTPN14
[2] = target: V5-tagged wild type YAP (human) (UniProt P46937); assay: co-IP; 293A cells transiently co-transfected with GST-PTPN14 and V5-YAP constructs; V5 IP (RIPA buffer, 4°C), blotted for GST
[3] = target: V5-tagged YAP WW1 mutant (human) (UniProt P46937); assay: as above

Row | Binder | binding [1] | binding [2] | binding [3]
1 | B1 | binds |  | 
2 | B2 |  | binds | binds
